{"source": "PubChem BioAssay AID602196 – INSERM – 2012", "purpose": "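Knock-downs that protect lung cancer cells from cisplatin or sensitise them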", "cells": "human A549 lung cancer cells", "knock-down reagent": "siRNA pair against human genes", "time to read-out": "48 h transfection before cisplatin; time from cisplatin to read-out not stated", "treatment": "cisplatin at a dose killing half of control-siRNA cells; exact dose and duration not given", "measured": "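Shift in cisplatin death relative to control siRNA, from -50 (all cells die) to +50 (no cells die); siRNAs harmful on their own scored 0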", "direction": "two-siRNA summed score (-2 to +2): higher = both siRNAs protect from cisplatin killing; -2 means both sensitise", "active means": "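Each siRNA scores 0 if harmful alone by LDH or WST-1, otherwise +1 if it reduces and -1 if it increases cisplatin killing; a gene is active when both siRNAs agree (sum +2 or -2)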", "meaning of the calls": "active = both siRNAs shift cisplatin killing the same way; inactive = no consistent shift, or siRNA harmful alone", "note": "In all, the deposit lists about 23,000 reagents; this is an unselected part. In the full data, 455 (2%) are marked active. 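Active includes both protection and sensitisation; some change values fall well beyond the stated -50 to +50 range.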 Unmarked entries are inactive. Reagents against one gene are numbered here. Not all columns of the deposit are shown. No sequences are given here. Not given: the amount of reagent."}
{"gene knocked down": "MMS19", "reagent no.": 1, "two-siRNA summed score (-2 to +2)": 0}
{"gene knocked down": "WDR45B", "reagent no.": 1, "two-siRNA summed score (-2 to +2)": 0}
{"gene knocked down": "GPR174", "reagent no.": 1, "two-siRNA summed score (-2 to +2)": "2 (active)"}
{"gene knocked down": "CAB39L", "reagent no.": 1, "two-siRNA summed score (-2 to +2)": 0}
{"gene knocked down": "NABP1", "reagent no.": 1, "two-siRNA summed score (-2 to +2)": 0}
{"gene knocked down": "MSH3", "reagent no.": 1, "two-siRNA summed score (-2 to +2)": 0}
{"gene knocked down": "BCL2A1", "reagent no.": 1, "two-siRNA summed score (-2 to +2)": 0}
{"gene knocked down": "ATXN10", "reagent no.": 1, "two-siRNA summed score (-2 to +2)": 0}
{"gene knocked down": "HES2", "reagent no.": 1, "two-siRNA summed score (-2 to +2)": 0}
{"gene knocked down": "ZNF135", "reagent no.": 1, "two-siRNA summed score (-2 to +2)": 0}
{"gene knocked down": "NFE2L3", "reagent no.": 1, "two-siRNA summed score (-2 to +2)": 0}
{"gene knocked down": "LOC339005", "reagent no.": 1, "two-siRNA summed score (-2 to +2)": 0}
{"gene knocked down": "PLSCR3", "reagent no.": 1, "two-siRNA summed score (-2 to +2)": 0}
{"gene knocked down": "LDHAL6A", "reagent no.": 1, "two-siRNA summed score (-2 to +2)": 0}
{"gene knocked down": "CYP2C18", "reagent no.": 1, "two-siRNA summed score (-2 to +2)": 1}
{"gene knocked down": "LOC222699", "reagent no.": 1, "two-siRNA summed score (-2 to +2)": 0}
{"gene knocked down": "JUP", "reagent no.": 1, "two-siRNA summed score (-2 to +2)": 0}
{"gene knocked down": "ZFP28", "reagent no.": 1, "two-siRNA summed score (-2 to +2)": 1}
{"gene knocked down": "CREBL2", "reagent no.": 1, "two-siRNA summed score (-2 to +2)": -1}
{"gene knocked down": "CRYAB", "reagent no.": 1, "two-siRNA summed score (-2 to +2)": 1}
{"gene knocked down": "LOC440819", "reagent no.": 1, "two-siRNA summed score (-2 to +2)": 1}
{"gene knocked down": "GNB1L", "reagent no.": 1, "two-siRNA summed score (-2 to +2)": 0}
{"gene knocked down": "INIP", "reagent no.": 1, "two-siRNA summed score (-2 to +2)": 0}
{"gene knocked down": "ZNF831", "reagent no.": 1, "two-siRNA summed score (-2 to +2)": 0}
{"gene knocked down": "AKTIP", "reagent no.": 1, "two-siRNA summed score (-2 to +2)": 0}
{"gene knocked down": "AKTIP", "reagent no.": 2, "two-siRNA summed score (-2 to +2)": 0}
{"gene knocked down": "LOC442100", "reagent no.": 1, "two-siRNA summed score (-2 to +2)": -1}
{"gene knocked down": "NUB1", "reagent no.": 1, "two-siRNA summed score (-2 to +2)": 0}
{"gene knocked down": "MVB12B", "reagent no.": 1, "two-siRNA summed score (-2 to +2)": 1}
{"gene knocked down": "NELFA", "reagent no.": 1, "two-siRNA summed score (-2 to +2)": 0}
{"gene knocked down": "PRR27", "reagent no.": 1, "two-siRNA summed score (-2 to +2)": 0}

4 entries from above, ordered by “two-siRNA summed score (-2 to +2)”, low to high:
{"gene knocked down": "GNB1L", "reagent no.": 1, "two-siRNA summed score (-2 to +2)": 0}
{"gene knocked down": "INIP", "reagent no.": 1, "two-siRNA summed score (-2 to +2)": 0}
{"gene knocked down": "CRYAB", "reagent no.": 1, "two-siRNA summed score (-2 to +2)": 1}
{"gene knocked down": "LOC440819", "reagent no.": 1, "two-siRNA summed score (-2 to +2)": 1}
